PubChem BioAssay AID1259308 – NCATS, 2017
Shown is a random part of about 59,000 reagents. About 1,510 of them (2.6%) count as active. 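Calls use total luciferase alone and ignore viability, so some active siRNAs may act by altering cell number.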 The numbers tell different reagents against one gene apart.

Test: 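Knock-downs that increase output of a recombinant reporter protein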 (primary screen)
System: human HEK293 embryonic kidney cells stably expressing firefly luciferase (HEK-CMV-Luc2-Hygro)
Reagent: single siRNA against human genes, 0.8 pmol siRNA per well
Time to read-out: 72 h
Measurement: 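Luciferase light (ONE-Glo) measured on one replicate plate set and viability (CellTiter-Glo) on the other, scaled to a negative control siRNA, with robust z-scores and luciferase per cell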
Reading the numbers: total luciferase, z-score and total luciferase, % of control: higher = more reporter protein produced; luciferase per cell, z-score: higher = more reporter output per viable cell; viable cells, % of control: higher = more viable cells
Call rule: 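Active when the median/MAD z-score for overall luciferase is greater than 3; a gene was taken forward for validation with new siRNAs if at least two of its three siRNAs passed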
Calls: active = raised luciferase; inactive = no rise

gene knocked down	siRNA no.	total luciferase, z-score	total luciferase, % of control	luciferase per cell, z-score	viable cells, % of control	Outcome
BBOX1 (gamma-butyrobetaine hydroxylase 1)	1	-0.658	68.8	-0.586	89.7	inactive
BBOX1 (gamma-butyrobetaine hydroxylase 1)	2	0.813	98.1	1.04	83.3	inactive
BBOX1 (gamma-butyrobetaine hydroxylase 1)	3	0.564	93.1	0.569	89.5	inactive
SEMA3D (semaphorin 3D)	1	1.71	116	1.05	98.2	inactive
SEMA3D (semaphorin 3D)	2	0.417	90.2	0.825	81.1	inactive
SEMA3D (semaphorin 3D)	3	0.713	96.1	-0.0611	109	inactive
INTS2 (integrator complex subunit 2)	1	4.18	165	2.77	88.9	active
INTS2 (integrator complex subunit 2)	2	1.71	116	2.34	69.9	inactive
INTS2 (integrator complex subunit 2)	3	4.08	163	2.13	104	active
TPH1 (tryptophan hydroxylase 1)	1	-0.283	76.3	0.219	80.4	inactive
TPH1 (tryptophan hydroxylase 1)	2	-2.7	28.2	-2.7	64.1	inactive
TPH1 (tryptophan hydroxylase 1)	3	-0.596	70	-0.82	97.1	inactive
LFNG (LFNG O-fucosylpeptide 3-beta-N-acetylglucosaminyltransferase)	1	0.558	93	1.14	76.9	inactive
LFNG (LFNG O-fucosylpeptide 3-beta-N-acetylglucosaminyltransferase)	2	-1.21	57.8	-1.6	98.5	inactive
LFNG (LFNG O-fucosylpeptide 3-beta-N-acetylglucosaminyltransferase)	3	0.499	91.8	-0.234	109	inactive
API5 (apoptosis inhibitor 5)	1	0.68	95.4	-0.237	113	inactive
API5 (apoptosis inhibitor 5)	2	0.833	98.5	0.814	88.8	inactive
API5 (apoptosis inhibitor 5)	3	0.501	91.9	-0.105	106	inactive
CCR1 (C-C motif chemokine receptor 1)	1	0.0388	82.7	0.392	83.3	inactive
CCR1 (C-C motif chemokine receptor 1)	2	-0.00406	81.8	-0.26	97.9	inactive
CCR1 (C-C motif chemokine receptor 1)	3	0.345	88.8	-0.134	103	inactive
GPR142 (G protein-coupled receptor 142)	1	-0.995	62.1	-0.987	90	inactive
GPR142 (G protein-coupled receptor 142)	2	1.52	112	2.24	69.4	inactive
GPR142 (G protein-coupled receptor 142)	3	0.574	93.3	-0.0805	106	inactive
